The campaign covered roughly 53,000 sequences. About 3,700 (7%) were called active.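 The calls were made as follows: active = gene knockdowns whose robust z-score for IL-1 alpha signal is at least 2 or at most -2, so actives lie on both sides; inactive = the rest.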 Some of the results follow.

A short description of the experiment: Components of the Cytosolic LPS Sensing Pathway: Gene Identification via Genome-wide siRNA Screen.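 Also: robust z of the log signal after scaling to non-targeting control siRNA wells of the plate.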 Conditions: RAW264.7 macrophages, IL-1a HTRF, actives lie on both sides, screened at 100 nM (by protocol), cells primed 5 h with Pam3CSK4 first. Summed up: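 Using IL-1a HTRF as read-out, the screen measured release from RAW264.7 cells after 48h siRNA knockdown (100 nM), 5 h Pam3CSK4 priming and 24 h cytosolic LipidA. Values were expressed relative to negative-control wells as robust z-scores.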
A general note: In TR-FRET formats the signal depends on donor and acceptor labels being close together.
Consider “GGAUGAGAAUAUUGAAAGATT against 4932415M13Rik”, for which the z-score is inactive: -0.225.

GGUACUUCAUGAGUUGUUCTT against Flt3: the z-score is inactive: -0.292. The value for GGACCUGUAUCUUGAAUCCTT against Tex2 was inactive: 1.55. Take GGAAUUAAACCAUUUCAGUTT against Zbtb44: the z-score is inactive: 1.28. For the sequence GGAUCAGAGUAUUUUUGUUTT against Tbx6, the z-score was inactive: -0.296. In the case of “GGAAGAGACAGAAUUAGUUTT against 9530091C08Rik”, the z-score is inactive: -0.638. Consider GGCCAAAAAACAAUGCCCATT against Sprr4, for which the z-score was inactive: -1.46.

Consider GCUAGUGAUGCUCUUACAGTT against Fat3, for which the z-score is inactive: 1.69. Next, CGAUCCACUCCCUGAUUCUTT against Gpr151: inactive: 0.264.

In the case of “CCGCUGAUGAAGAUAGAGATT against 4931414P19Rik”, the z-score was inactive: 0.922. The value for GGUUUGACUGGCUACCUAUTT against Galnt15 was inactive: -0.151; that for GGAAAAACAGCUUAACACUTT against Pate4 was inactive: 0.66. Next, GCUCUCAGGUCCUAAGAGATT against Ighg: inactive: 0.371; CGUACAAACAUAACUGUGGTT against Acp5: inactive: -1.07. The value for AACUUCACUAUCUUGUUGGTT against Olfr594 was inactive: 0.861. For GGCUGUCACUUUAUAGGCATT against Wrnip1, the z-score was inactive: -0.862. Next, GGAGACCAGGAAGUGUUGATT against Gal: inactive: 0.103; GCUUUAGGUCCAUUCGGAGTT against Pkd2l2: inactive: 0.111; CCACUUCAGUAUUUGGCUUTT against Tas2r137: inactive: -0.404. Next, GGUGUGGAAGUCAGUUUAATT against Serpinb3a: active: 2.53. Next, GCUUCAAUAUCUUCGUUGCTT against Olfr1461: inactive: -1.24; CGGCAAAGUCCUCACAGCUTT against Ints12: inactive: -1.34; GCCAAUCCUUCAUAGUUUUTT against Kif18a: inactive: 0.683. For the sequence GGAUGAUGAAUGCAAUUAATT against Eed, the z-score is inactive: -0.882. The value for GGAAAGAAACUGCAUCGAGTT against Ccdc144b was inactive: -0.21; that for GGUACAGUACAUUGACCUATT against Adck5 was inactive: 1.36; that for GGACUGAUUGAUAAAGUCATT against Srp54a was inactive: -0.458.

In the case of GGUGUUCUGGAAGAAGAAATT against Thoc1, the z-score was inactive: -0.362. Regarding GGUUUUUGACAACUUUCUGTT against Fxyd4, the z-score was inactive: -1.6. As to GCACUAAGCUUUAUUCAUCTT against Mast2, the z-score was inactive: -0.0104. The value for GGAUGUUGGUAGACUUCUUTT against Olfr732 was inactive: 0.558; that for GGCCAAUCUAUGCUGUCCCTT against Rnf168 was inactive: -0.767; that for GGACCAAGAGGACAUUACCTT against Tbl3 was inactive: -0.971. Next, GCUUAUGAGGCUCAGCAUUTT against Pigh: inactive: 1.29; AGAAGUCCUCAAAAUGACCTT against Vmn1r181: inactive: -1.02. Next, GGAGAGUUUAUCAGACAGUTT against Shmt2: inactive: 0.45. CGUUUAAAGACUAGCAAGATT against Tab1: the z-score was inactive: 0.0468.

As for GCUCUGAUUCAUUACUAUUTT against Mansc1, the z-score is inactive: 0.671. Turning to GGGACUUUCCCACUCAAAATT against Olfr1295, the z-score was inactive: -0.68. In the case of GCCUAACCUGGUAUCCCAGTT against Zfp92, the z-score is inactive: -1.03.

On to GGGUGAAGAAUCUUUUUGUTT against Olfr676, for which the z-score was inactive: 0.323. The value for GGUGGAAUAACAGAUAAAATT against Cutc was inactive: 0.255; that for GCAGGUUCGAAAAUCAAUGTT against Upf3b was inactive: -0.0474; that for GUAUAGUGUAUCUCAUCAUTT against Olfr1107 was inactive: 1.56. Next, GGUUUUCCCACAUGUCAGATT against Zmat5: inactive: 0.805; GGACAUGUCGGUUUUGUGCTT against Lrrc8e: inactive: -0.755; GGUCAUCAGCUCUAUGAGCTT against Fry: inactive: 0.0787.

Take GGUCAAUGGCAUGUUGAUCTT against Mc2r: the z-score was inactive: 0.334. Next, GGAAGCUGUCUUCAAGUCCTT against Phf7: inactive: -1.3; GGAUUACGGAUCCAAAGUCTT against Eif2b4: inactive: 1.82. Next, GGGCACAGAGUGUAUCAUCTT against Wap: inactive: 0.969; GCCAAGUCAACCAUAGAAUTT against Setx: inactive: -0.0566; CCUCUGUUGAACCAUCAUUTT against Gpr21: inactive: 0.127. Take GGUACCUCUUCUCCUAAAGTT against Vps16: the z-score is inactive: 0.106. Next, GGAUGAAUGCAGCUUCCAUTT against Myh14: active: 2.35; GGACAAACAGGGUUAUUUATT against Srrm4: inactive: 0.277; GGAUCUUUCCAGGUUACAATT against Dmrta1: inactive: -0.803. Next, GGAUGAGAAUGGGAAGAUUTT against Naa10: inactive: -0.38; GGUUAUCGUUCAGUUGGUCTT against Nfkb1: inactive: 0.499. Take CCAAUGAUGGAGCUGAAGCTT against Ranbp1: the z-score is active: -2.72. Take GCGAGCGGUUGACUUGUGUTT against Ftsj1: the z-score was inactive: 0.732. The value for GCAUCUUAGGCAUUGCUAGTT against Pcna was inactive: -0.156.

In the case of GGCUGUGCUCAGGAUCAAATT against Olfr683, the z-score was active: 2.37. The value for CCUGAUUGGGAUCUCAAGATT against Ccdc12 was inactive: -0.673; that for GGUCUCAUCGCUUGAUACUTT against Pcdhgb6 was inactive: 0.959; that for GGACCAGCUUGAAGCUGAATT against Atl2 was inactive: 0.388. CCUAUUUUGGUAAGAUAGATT against Rasl12: the z-score is inactive: -0.56.

Take GCAGGAAGAAUGUUUUUCUTT against LOC626846: the z-score was inactive: -0.534. Next, CCAGACAUGAUACUCCGGCTT against Tssk3: active: 2.57; GGAACAGUACCUUUUUGUGTT against Dnase1: inactive: 0.48; GGACCUACUACGUAAACCATT against Nedd4: inactive: 0.434. In the case of GGGUUCAAGAGAUGAUAUUTT against Usp11, the z-score is inactive: 0.245. Next, “GGUCCUUGCAUUUCAUCAATT against A630005I04Rik”: inactive: 1.6; GCUUGAGAAGACCACCAAATT against Cypt1: inactive: -1.7. The value for CCCUUUUGAAAUUCUGACCTT against Zfp46 was inactive: -0.491; that for GCUAUCGGUGUCCUGACCATT against Pfkp was inactive: -0.574; that for GGAGACGUGAUUGAAAGGGTT against Fabp6 was inactive: -1.21. As for GGAGGACAUCAAUAAAACATT against Slc2a10, the z-score is inactive: 0.038. Next, GGCGGCCUUAGUAGAUAUCTT against Acsl4: inactive: 0.677.

Take CGUCCAGAGACCAUUAUAATT against Pibf1: the z-score is inactive: 1.2. The value for GCGGCAACAUUCUCUUAAGTT against Nuak2 was inactive: 1.12; that for GGUCUGCUGUUGAUCGUUCTT against Sct was inactive: 1.72; that for GGACAACCAGCUCAUUGUGTT against Cd82 was inactive: -1.09. Next, CCAAUUCUACCUAUUACAGTT against Shroom2: inactive: 0.833; GGAAUGAACUCUUUGAAAATT against Opa1: inactive: 0.376; GGAAGUCCACGAAACUAAATT against Prl3d1: inactive: 0.359. Next, GCCUGAUGUACAUCACCACTT against Olfr615: inactive: -0.701; GGACCUGAAAAUCAAAUGATT against Arpc1b: inactive: 1.3.

Regarding GGCCAAAUAACCUAGUAAUTT against Rpf2, the z-score is inactive: 1.15. The value for GGGAGGCAAGCAUAAGACUTT against Cycs was inactive: -0.116; that for GGAGAAGAUGGAGAAGACCTT against Cavin1 was inactive: 0.946; that for GCCAUUGUUGCUUACUCGGTT against Hspa14 was inactive: 0.284. For GGUGCUGCCCUGUCUAUUGTT against Slc38a8, the z-score was inactive: 0.425. As to GGAUCAUGGAUAUACCACCTT against Smarcb1, the z-score is inactive: -1.72. Next, GGUUUUAUCAGAUCCCAAGTT against Dclre1c: inactive: 1.02; CCCUUUAGCUUCCUAAUGUTT against Rhag: inactive: 0.11; GGCAAUAAAUGCUGAGUUATT against Fbxo15: inactive: 0.664. The value for GGCUAAAACAAGUGAAUGGTT against Gli3 was inactive: -0.619. In the case of GGGUAUGAUUAAAAGGUAATT against Mstn, the z-score was inactive: -1.96.

Take GGAGCUGUAUCGCACGAAATT against Ehd2: the z-score was inactive: -0.689. The value for CCACUAAGUCCCAUGCUAGTT against Glycam1 was inactive: 0.188; that for GGCAGGCUAACGAAGAAUATT against Tusc3 was inactive: 0.309; that for CGGAUUCGGGAAUUCUAUCTT against Pcgf1 was inactive: 0.143.

Take GCCUUGUACCCUGUAGUGATT against Lalba: the z-score was inactive: -0.39. Next, GGCCAAUCAAGAUAGCCACTT against Dnajc1: inactive: 1.12; GGUGAAAAACUAGCUUAAATT against Zfp263: inactive: -0.0611; GCAAGUCACUUUGGUACCATT against Anxa1: inactive: 0.879.

The record behind these values is PubChem BioAssay AID1508600 (Functional Genomics Laboratory (NCATS/FGL), 2020).
